Publication PMC6643046

Legend:
Experiment in all cases: EMSA
[1] = tested on: ZnF-Cst 2-6 (Mus musculus castaneus (CAST/EiJ)); conditions: 10 mM Tris pH 7.5, 50 mM KCl, 50 uM ZnCl2, 0.05% NP-40 (1x TKZN), usually 50 ng/ul polydIdC, 60 min at RT, 5% native PAGE in 0.5x TBE, recombinant protein, protein details: His
[2] = tested on: ZnF-Cst 1-11 (Mus musculus castaneus (CAST/EiJ)); conditions: 10 mM Tris pH 7.5, 50 mM KCl, 50 uM ZnCl2, 0.05% NP-40 (1x TKZN), usually 50 ng/ul polydIdC, 60 min at RT, 5% native PAGE in 0.5x TBE, recombinant protein, protein details: His
[3] = tested on: ZnF-Cst 2-8 (Mus musculus castaneus (CAST/EiJ)); conditions: 10 mM Tris pH 7.5, 50 mM KCl, 50 uM ZnCl2, 0.05% NP-40 (1x TKZN), usually 50 ng/ul polydIdC, 60 min at RT, 5% native PAGE in 0.5x TBE, recombinant protein, protein details: His
[4] = tested on: eYFP-ZnF-Cst 2-11 (Mus musculus castaneus (CAST/EiJ)); conditions: 10 mM Tris pH 7.5, 50 mM KCl, 50 uM ZnCl2, 0.05% NP-40 (1x TKZN), usually 50 ng/ul polydIdC, 60 min at RT, 5% native PAGE in 0.5x TBE, recombinant protein, protein details: His, eYFP
[5] = tested on: eYFP-ZnF-Cst 1-11 (Mus musculus castaneus (CAST/EiJ)); conditions: 10 mM Tris pH 7.5, 50 mM KCl, 50 uM ZnCl2, 0.05% NP-40 (1x TKZN), usually 50 ng/ul polydIdC, 60 min at RT, 5% native PAGE in 0.5x TBE, recombinant protein, protein details: His, eYFP
[6] = tested on: ZnF-Cst (Mus musculus castaneus (CAST/EiJ)); conditions: 10 mM Tris pH 7.5, 50 mM KCl, 50 uM ZnCl2, 0.05% NP-40 (1x TKZN), usually 50 ng/ul polydIdC, 60 min at RT, 5% native PAGE in 0.5x TBE, protein translated in vitro, protein details: His
[7] = tested on: eYFP-ZnF-Cst (Mus musculus castaneus (CAST/EiJ)); conditions: 10 mM Tris pH 7.5, 50 mM KCl, 50 uM ZnCl2, 0.05% NP-40 (1x TKZN), usually 50 ng/ul polydIdC, 60 min at RT, 5% native PAGE in 0.5x TBE, protein translated in vitro, protein details: His, eYFP
[8] = tested on: Halo-ZnF-Cst 1-11 (Mus musculus castaneus (CAST/EiJ)); conditions: 10 mM Tris pH 7.5, 50 mM KCl, 50 uM ZnCl2, 0.05% NP-40 (1x TKZN), usually 50 ng/ul polydIdC, 60 min at RT, 5% native PAGE in 0.5x TBE, recombinant protein, protein details: His6-HaloTag
[9] = tested on: ZnF-Cst 2-11 (Mus musculus castaneus (CAST/EiJ)); conditions: 10 nM DNA, polydIdC; 10 mM Tris pH 7.5, 50 mM KCl, 50 uM ZnCl2, 0.05% NP-40 (1x TKZN), usually 50 ng/ul polydIdC, 60 min at RT; 5% native PAGE in 0.5x TBE; recombinant protein; protein details: His; label: 5' biotin
[10] = tested on: MBP-eYFP-ZnF-Cst (Mus musculus castaneus (CAST/EiJ)); conditions: 250 nM protein, polydIdC; 10 mM Tris pH 7.5, 50 mM KCl, 50 uM ZnCl2, 0.05% NP-40 (1x TKZN), usually 50 ng/ul polydIdC, 60 min at RT; 5% native PAGE in 0.5x TBE; recombinant protein; protein details: His, MBP, eYFP; label: 5' biotin
[11] = tested on: eYFP-PRDM9-Cst (Mus musculus castaneus (CAST/EiJ)); conditions: trimer, assay II; 10 mM Tris pH 7.5, 50 mM KCl, 50 uM ZnCl2, 0.05% NP-40 (1x TKZN), usually 50 ng/ul polydIdC, 60 min at RT; 5% native PAGE in 0.5x TBE; protein translated in vitro; protein details: His, eYFP; label: 5' biotin
[12] = lower shift and supershift, label: biotin

Measured: binding result

AACCCTGAGCTGCCTAAAGGTCAAATAGTGTGCAGACTTGGACCCTGCCCTTTCTTTAATAGTGTGCAGACTTGGACCCTGCCCTTTCTTTCTGCTGTGAATACCAGAGGCACA (double strand) [tandem-Hlx1 114 bp]
binds: [1]; small assay I, label: biotin | [2]; [12] | [3]; small assay I, label: biotin | [4]; [12] | [5]; [12] | [6]; [12] | [7]; [12]

GAGATGGGGTCCTTTGTGCTTTAATAGTGTGCAGACTTGGACCCTGCCCTTTCTTTGTAAGGCTTCGTGGTATGGGATCCGTGTGGATGAACCCTGAGCTGCCTAAAGGTCACTTGGAGTAAGAAGACTGCTGTGAAATAGTGTGCAGACTTGGACCCTGCCCTTTCTTTTGGAATTATACCAGAGGCACATGCAAGGCTGGGCATCAGCCGGAAGGAAGAAATGGACACAC (double strand) [tandem-Hlx1-BamHI 232 bp]
binds: [8]; lower shift and supershift, BamHI digest separates the complexes, label: biotin

GTGGGAGGAGATGGTGGGTGAATAGTGTGCAGACTTGGACCCTGCCCTTTCTTTACGCATTCCACTAACCATGGG (double strand) [single-Hlx1 75 bp]
binds: [1]; trimer, 5 ZnFs suffice, label: 5' biotin | [2]; label: 5' biotin | [9] | [3]; label: 5' biotin | [4]; 10 nM DNA, polydIdC, label: 5' biotin | [8]; complex confirmed by MALDI-TOF MS, label: 5' biotin | [10] | [5]; label: 5' biotin | [6]; label: 5' biotin | [11] | [7]; label: 5' biotin

For at least one entry, the source does not settle the construct or the ends of the probe. For some of these results: At least one verdict was read from the data and is not stated in words by the source.
